The assay concerns the target CCAAT/enhancer-binding protein (C/EBP)β (mouse (endogenous in BV2)) (UniProt P28033). As to the kind of experiment: co-IP; lysates of BV2 cells (RIPA buffer) immunoprecipitated with control IgG or anti-C/EBPβ overnight at 4 °C, Protein A/G magnetic beads, immunoblot for Peli1; both proteins endogenous. For orientation: In western blotting, separated proteins are transferred to a membrane and probed.

Protein sequences, listed by entry. Tags and fused reporters are not part of them.
UniProt P28033: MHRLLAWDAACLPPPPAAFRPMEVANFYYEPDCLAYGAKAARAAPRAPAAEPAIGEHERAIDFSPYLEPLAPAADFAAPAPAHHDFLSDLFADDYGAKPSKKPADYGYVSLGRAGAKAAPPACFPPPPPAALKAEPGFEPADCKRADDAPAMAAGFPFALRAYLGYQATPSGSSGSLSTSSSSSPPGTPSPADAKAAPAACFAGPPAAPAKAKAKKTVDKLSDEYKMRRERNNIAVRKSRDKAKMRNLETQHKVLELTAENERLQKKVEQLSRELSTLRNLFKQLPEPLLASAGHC

No constants are given. Whether binding was seen depends on the method and setting. Binding seen in cells or lysates may run through a third protein. Some results given as binding are weak or reduced against the parent protein; the word gives no strength.

B1: Pellino 1 (Peli1) (protein, UniProt Q8C669 1-418)
chain: MFSPDQENHPSKAPVKYGELIVLGYNGSLPNGDRGRRKSRFALFKRPKANGVKPSTVHIACTPQAAKAISNKDQHSISYTLSRAQTVVVEYTHDSNTDMFQIGRSTESPIDFVVTDTVPGSQSNSDTQSVQSTISRFACRIICERSPPFTARIYAAGFDSSKNIFLGEKAAKWKTSDGQMDGLTTNGVLVMHPRNGFTEDSKPGIWREISVCGNVFSLRETRSAQQRGKMVEIETNQLQDGSLIDLCGATLLWRTAEGLSHTPTVKHLEALRQEINAARPQCPVGFNTLAFPSMKRKDVVDEKQPWVYLNCGHVHGYHNWGNKEERDGKDRECPMCRSVGPYVPLWLGCEAGFYVDAGPPTHAFSPCGHVCSEKTTAYWSQIPLPHGTHTFHAACPFCAHQLAGEQGYIRLIFQGPLD
Turning to B1, the binding result is on record as “binds”.

Values taken from paper PMC7561136.
